Laboratory results: PMC6882821, “Production of recombinant soluble dimeric C-type lectin-like receptors of rat natural killer cells” (Scientific Reports, 2019)
Results are given in words; binding and its absence hold for the method and conditions named. Where a sequence is shown, tags or fusion partners need not be part of it.

Target: NKR-P1B^SD V78-S223, histidine-tagged, expressed from pHLsec (rat (SD strain)) (UniProt A4KWA1)
Test: non-reducing SDS-PAGE with Western blot; small-scale expression test; 10 ul of culture supernatant 3 days after transfection, 15% SDS-PAGE under non-reducing conditions, detected by PentaHis mAb; shows covalent dimers

binding: no binding
B1: NKR-P1B^SD V78-S223, histidine-tagged, expressed from pHLsec (domain or fragment, UniProt A4KWA1 78-223)
chain: ETGVQENRTKTTDSPAKLKCPKDWHSHQDKCFHVSQTSITWKGSLADCGGKGATLLLVQDQEELRFLRNLTKRISSSFWIGLSYTLSDEKWKWINGSTLNSDALNITGDTEKDSCASVSQDKVLSESCDSDNIWICQKELKRESTCNDS
